The text below walks through data of publication PMC12656746.

Sequences of proteins named here, by UniProt entry; tags and fusion partners are left off.
UniProt Q7Z333: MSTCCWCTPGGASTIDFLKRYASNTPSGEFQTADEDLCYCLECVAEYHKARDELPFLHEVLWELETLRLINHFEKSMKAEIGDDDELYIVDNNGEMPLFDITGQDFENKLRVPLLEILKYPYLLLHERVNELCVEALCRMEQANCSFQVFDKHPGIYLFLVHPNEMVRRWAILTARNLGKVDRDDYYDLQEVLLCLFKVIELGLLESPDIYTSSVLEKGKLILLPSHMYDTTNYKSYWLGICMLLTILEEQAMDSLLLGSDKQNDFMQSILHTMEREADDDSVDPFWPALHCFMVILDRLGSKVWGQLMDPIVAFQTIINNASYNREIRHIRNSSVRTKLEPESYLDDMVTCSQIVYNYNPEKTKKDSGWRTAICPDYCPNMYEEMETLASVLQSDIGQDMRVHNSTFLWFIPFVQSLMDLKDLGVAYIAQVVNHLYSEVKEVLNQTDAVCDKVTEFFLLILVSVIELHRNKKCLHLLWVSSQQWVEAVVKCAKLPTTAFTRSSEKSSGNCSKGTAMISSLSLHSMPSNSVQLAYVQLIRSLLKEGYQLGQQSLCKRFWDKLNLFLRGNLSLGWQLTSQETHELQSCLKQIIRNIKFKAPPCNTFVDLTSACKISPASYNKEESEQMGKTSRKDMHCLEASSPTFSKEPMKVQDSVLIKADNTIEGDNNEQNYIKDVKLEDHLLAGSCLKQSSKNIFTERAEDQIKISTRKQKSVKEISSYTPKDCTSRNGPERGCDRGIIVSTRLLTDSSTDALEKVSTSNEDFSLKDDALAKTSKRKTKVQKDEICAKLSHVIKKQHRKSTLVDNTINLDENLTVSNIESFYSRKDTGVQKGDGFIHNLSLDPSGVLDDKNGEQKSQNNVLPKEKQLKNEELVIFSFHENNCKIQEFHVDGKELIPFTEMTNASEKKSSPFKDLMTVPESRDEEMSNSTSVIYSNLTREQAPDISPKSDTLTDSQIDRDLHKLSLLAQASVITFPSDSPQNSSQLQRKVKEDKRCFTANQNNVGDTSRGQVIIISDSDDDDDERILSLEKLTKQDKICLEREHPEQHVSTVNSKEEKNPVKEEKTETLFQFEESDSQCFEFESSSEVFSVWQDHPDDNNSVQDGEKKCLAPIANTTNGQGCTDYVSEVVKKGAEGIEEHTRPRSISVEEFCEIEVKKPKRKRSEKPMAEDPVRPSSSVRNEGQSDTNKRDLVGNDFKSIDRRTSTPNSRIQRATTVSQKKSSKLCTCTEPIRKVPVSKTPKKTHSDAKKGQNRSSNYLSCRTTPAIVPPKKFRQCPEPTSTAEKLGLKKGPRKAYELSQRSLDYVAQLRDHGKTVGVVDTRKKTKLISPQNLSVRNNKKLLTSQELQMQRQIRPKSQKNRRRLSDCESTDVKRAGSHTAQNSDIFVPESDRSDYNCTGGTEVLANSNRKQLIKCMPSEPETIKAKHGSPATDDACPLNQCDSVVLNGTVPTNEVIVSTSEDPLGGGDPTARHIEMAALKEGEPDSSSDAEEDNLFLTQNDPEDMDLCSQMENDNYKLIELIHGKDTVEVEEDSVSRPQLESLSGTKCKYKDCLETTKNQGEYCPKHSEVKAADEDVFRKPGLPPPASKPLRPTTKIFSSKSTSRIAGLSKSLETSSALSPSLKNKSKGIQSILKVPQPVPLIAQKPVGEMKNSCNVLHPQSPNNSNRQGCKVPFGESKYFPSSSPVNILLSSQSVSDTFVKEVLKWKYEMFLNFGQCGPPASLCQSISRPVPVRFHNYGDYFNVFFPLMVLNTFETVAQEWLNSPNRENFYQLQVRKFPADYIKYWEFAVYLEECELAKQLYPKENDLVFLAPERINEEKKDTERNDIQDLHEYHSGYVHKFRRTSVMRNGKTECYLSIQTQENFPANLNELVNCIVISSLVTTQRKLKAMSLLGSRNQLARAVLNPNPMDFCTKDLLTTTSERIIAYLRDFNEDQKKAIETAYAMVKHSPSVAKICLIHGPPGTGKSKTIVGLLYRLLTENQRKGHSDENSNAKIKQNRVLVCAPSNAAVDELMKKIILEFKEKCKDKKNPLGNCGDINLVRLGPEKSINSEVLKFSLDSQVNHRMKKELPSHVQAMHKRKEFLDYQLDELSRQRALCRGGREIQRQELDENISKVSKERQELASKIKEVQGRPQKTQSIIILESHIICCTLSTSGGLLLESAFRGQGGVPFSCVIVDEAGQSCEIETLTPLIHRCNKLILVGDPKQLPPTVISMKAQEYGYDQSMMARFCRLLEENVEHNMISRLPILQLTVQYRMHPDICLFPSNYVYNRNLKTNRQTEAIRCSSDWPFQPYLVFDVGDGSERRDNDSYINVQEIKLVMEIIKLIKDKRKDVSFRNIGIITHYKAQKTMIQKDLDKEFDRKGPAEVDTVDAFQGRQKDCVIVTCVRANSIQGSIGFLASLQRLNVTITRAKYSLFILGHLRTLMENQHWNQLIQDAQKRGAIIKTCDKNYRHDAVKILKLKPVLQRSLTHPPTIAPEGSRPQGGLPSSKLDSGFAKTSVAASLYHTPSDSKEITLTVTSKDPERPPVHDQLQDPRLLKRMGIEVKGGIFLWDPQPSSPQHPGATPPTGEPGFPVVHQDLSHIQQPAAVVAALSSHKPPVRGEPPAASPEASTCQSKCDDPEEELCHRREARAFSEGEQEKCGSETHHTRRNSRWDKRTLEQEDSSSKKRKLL
UniProt P17383: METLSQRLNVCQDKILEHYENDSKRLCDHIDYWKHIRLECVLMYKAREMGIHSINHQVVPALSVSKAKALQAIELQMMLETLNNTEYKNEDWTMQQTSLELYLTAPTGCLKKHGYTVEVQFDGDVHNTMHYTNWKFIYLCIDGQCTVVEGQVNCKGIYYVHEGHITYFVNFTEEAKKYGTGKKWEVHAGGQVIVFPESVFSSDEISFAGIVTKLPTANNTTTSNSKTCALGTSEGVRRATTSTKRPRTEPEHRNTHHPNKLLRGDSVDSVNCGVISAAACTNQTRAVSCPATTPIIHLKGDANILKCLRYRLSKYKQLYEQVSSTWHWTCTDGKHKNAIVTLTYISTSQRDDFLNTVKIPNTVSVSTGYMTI

These are yes or no findings as the source states them, for the method shown. In cells and extracts the contact can be indirect. Some binding calls cover weakened binding; strength is not graded here. Sequences can lack the tags named with a protein.

The assay deals with Senataxin (SETX), GFP-SETX (human) (UniProt Q7Z333). Kind of assay: co-IP.

On to “HPV-31 E2 protein (from UniProt P17383 1-372)”, for which the binding entry is on record as “binds”.

B1: Zinc-finger protein ZPR1, FLAG-ZPR1 (protein, UniProt O75312 1-459)
chain: MAASGAVEPGPPGAAVAPSPAPAPPPAPDHLFRPISAEDEEQQPTEIESLCMNCYCNGMTRLLLTKIPFFREIIVSSFSCEHCGWNNTEIQSAGRIQDQGVRYTLSVRALEDMNREVVKTDSAATRIPELDFEIPAFSQKGALTTVEGLITRAISGLEQDQPARRANKDATAERIDEFIVKLKELKQVASPFTLIIDDPSGNSFVENPHAPQKDDALVITHYNRTRQQEEMLGLQEEAPAEKPEEEDLRNEVLQFSTNCPECNAPAQTNMKLVQIPHFKEVIIMATNCENCGHRTNEVKSGGAVEPLGTRITLHITDASDMTRDLLKSETCSVEIPELEFELGMAVLGGKFTTLEGLLKDIRELVTKNPFTLGDSSNPGQTERLQEFSQKMDQIIEGNMKAHFIMDDPAGNSYLQNVYAPEDDPEMKVERYKRTFDQNEELGLNDMKTEGYEAGLAPQR
In the case of B1, the binding result is given as “binds”.
